The list shows only some results of the screen, not a fair sample: it gathers tests that were run many times, whatever their T/C, doses with no T/C, and many T/C values between a quarter and a half above the control. Other doses and runs of a compound stand elsewhere. T/C: endpoint of the treated group in % of that of the vehicle group. Some entries give survivors of the animals treated and no T/C: the source holds a T/C of zero for them, seemingly a mark for toxic or unscored doses. Some doses without a T/C left all or most animals alive at the check, yet need not have been tolerated: the source hardly ever lists a survival T/C far under the control, and the zero likely stands for such cases as well. Counts of survivors are from the toxicity check (mostly the fifth day) where no day follows; animals may have died later. Schedules are NCI's codes, read here as Q, the interval in days (D) or hours (H), X, the number of doses. Brackets with × stand for listed records that agree. Where survival is the endpoint, the PubChem record calls one and a half times the control and up active, and a quarter to a half above the control has no call in these data; cut-offs in other NCI protocols can differ. Some T/C values carry the count of animals alive at the toxicity check (mostly the fifth day); where none is given, no animal had died by that day.
Tested on: CD2F1 mice, L1210 leukemia ip, survival T/C
Assay: NCI In Vivo Anticancer Drug Screen. Data for tumor model L1210 Leukemia (intraperitoneal) in CD2F1 (CDF1) mice
Details: higher T/C = longer survival
How it was run: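 Mice carrying a transplanted tumor received test compound or vehicle alone. The value is the measurement in the treated group divided by that in the vehicle-treated control group.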

[1] = T/C endpoint: mean survival time, dose: 400.0 mg/kg/injection, schedule: Q01DX009 (ip), vehicle: saline
[2] = T/C endpoint: mean survival time, dose: 100.0 mg/kg/injection, schedule: Q04DX003 (ip), vehicle: saline with Tween-80
[3] = T/C endpoint: mean survival time, dose: 200.0 mg/kg/injection, schedule: Q04DX003 (ip), vehicle: saline with Tween-80
[4] = T/C endpoint: mean survival time, dose: 400.0 mg/kg/injection, schedule: Q04DX003 (ip), vehicle: saline with Tween-80
[5] = T/C endpoint: mean survival time, dose: 200.0 mg/kg/injection, schedule: Q01DX009 (ip), vehicle: saline with Tween-80
[6] = T/C endpoint: mean survival time, dose: 400.0 mg/kg/injection, schedule: Q01DX009 (ip), vehicle: saline with Tween-80
[7] = T/C endpoint: mean survival time, dose: 200.0 mg/kg/injection, schedule: Q01DX009 (ip), vehicle: saline
[8] = T/C endpoint: mean survival time, dose: 300.0 mg/kg/injection, schedule: Q01DX001 (ip), vehicle: saline
[9] = T/C endpoint: mean survival time, dose: 400.0 mg/kg/injection, schedule: Q01DX001 (ip), vehicle: saline
[10] = T/C endpoint: mean survival time, dose: 100.0 mg/kg/injection, schedule: Q04DX002 (ip), vehicle: saline with Tween-80
[11] = T/C endpoint: mean survival time, dose: 200.0 mg/kg/injection, schedule: Q04DX002 (ip), vehicle: saline with Tween-80
[12] = T/C endpoint: mean survival time, dose: 400.0 mg/kg/injection, schedule: Q04DX002 (ip), vehicle: saline with Tween-80
[13] = T/C endpoint: mean survival time, dose: 400.0 mg/kg/injection, schedule: Q01DX009 (ip), vehicle: water

With Cc1ccc([N+](=O)[O-])cc1NC(=O)NNC(=O)CNC(=O)Nc1ccc(F)cc1 the survivor count (T/C endpoint: mean survival time, dose: 100.0 mg/kg/injection, schedule: Q01DX009 (ip), vehicle: saline with Tween-80) was 6 of 6.
c1ccc(CN2CCOC2)cc1 was tested, and the survivor count [1] was 0 of 6 (2×).
For C[S+](C)CCCNC(=O)c1csc(CCNC(=O)c2ccccc2)n1, the survivor count [2] was 5 of 6, the survivor count [3] was 0 of 6 and the survivor count [4] was 1 of 6.
In the case of CN1CCC(Br)(C(=O)c2ccccc2)CC1, the survivor count (T/C endpoint: mean survival time, dose: 300.0 mg/kg/injection, schedule: Q04DX003 (ip), vehicle: saline with Tween-80) is reported as 0 of 6.
In the case of CCN(CC)c1ccc(N)cc1, the survivor count (T/C endpoint: mean survival time, dose: 100.0 mg/kg/injection, schedule: Q04DX003 (ip), vehicle: saline) is reported as 0 of 6, the survivor count (T/C endpoint: mean survival time, dose: 200.0 mg/kg/injection, schedule: Q04DX003 (ip), vehicle: saline) is reported as 0 of 6 and the survivor count (T/C endpoint: mean survival time, dose: 400.0 mg/kg/injection, schedule: Q04DX003 (ip), vehicle: saline) is reported as 0 of 6.
In the case of Nc1ncnc(N)c1NC(=O)c1ccc(OCCOc2ccccc2)c(Cl)c1, the survivor count [2] is reported as 6 of 6 and the survivor count [4] is reported as 3 of 6.
In the case of COC(=O)Nc1ccccc1OS(=O)(=O)N(C)C, the survivor count [5] is reported as 1 of 6 and the survivor count [6] is reported as 2 of 6.
For COc1ccc(C2=NCCc3cc(OC)c(OC)cc32)cc1OC, the survivor count (T/C endpoint: mean survival time, dose: 50.0 mg/kg/injection, schedule: Q01DX009 (ip), vehicle: other) was 6 of 6, the survivor count (T/C endpoint: mean survival time, dose: 100.0 mg/kg/injection, schedule: Q01DX009 (ip), vehicle: other) was 6 of 6 and the survivor count (T/C endpoint: mean survival time, dose: 200.0 mg/kg/injection, schedule: Q01DX009 (ip), vehicle: other) was 1 of 6.
In the case of CCCCCCCCC(=O)OCC1OC(n2cnc3c(N)nc(Cl)nc32)CC1O (configuration not stated), the T/C (T/C endpoint: median survival time, dose: 25.0 mg/kg/injection, schedule: Q01DX009 (ip), vehicle: saline with Tween-80) is reported as 141 % of control.
In the case of CNC(C(=O)O)c1ccccc1 (configuration not stated), the survivor count [5] is reported as 6 of 6 and the survivor count [6] is reported as 1 of 6.
With C=C(C)CC1(CC)C(=O)NC(=S)NC1=O the survivor count [5] was 1 of 6.
For CC(C)(C)OC(=O)NCCCC(=O)O, the survivor count [4] was 5 of 6.
In the case of CC(=O)OC(C)(C)/C=C/C(=O)[C@](C)(O)[C@H]1[C@H](O)C[C@@]2(C)[C@@H]3CC=C4[C@@H](CC[C@H](O)C4(C)C)[C@]3(CO)C(=O)C[C@]12C, the survivor count (T/C endpoint: mean survival time, dose: 5.0 mg/kg/injection, schedule: Q04DX003 (ip), vehicle: saline with Tween-80) is reported as 0 of 6, the survivor count (T/C endpoint: mean survival time, dose: 10.0 mg/kg/injection, schedule: Q04DX003 (ip), vehicle: saline with Tween-80) is reported as 0 of 6 and the survivor count (T/C endpoint: mean survival time, dose: 20.0 mg/kg/injection, schedule: Q04DX003 (ip), vehicle: saline with Tween-80) is reported as 0 of 6. For the same molecule, the survivor count [2] was 0 of 6, the survivor count [3] was 0 of 6 and the survivor count [4] was 0 of 6.
In the case of C(CC1CO1)CC1OC1CC1CO1 (configuration not stated), the T/C (T/C endpoint: mean survival time, dose: 59.0 mg/kg/injection, schedule: Q01DX009 (ip), vehicle: saline) is reported as 130 % of control, the T/C (T/C endpoint: mean survival time, dose: 89.0 mg/kg/injection, schedule: Q01DX009 (ip), vehicle: saline) is reported as 136 % of control and the survivor count (T/C endpoint: mean survival time, dose: 133.0 mg/kg/injection, schedule: Q01DX009 (ip), vehicle: saline) is reported as 6 of 6. The survivor count [7] was 1 of 6, the T/C [8] was 143 % of control [4 of 6 alive] and the survivor count (T/C endpoint: mean survival time, dose: 300.0 mg/kg/injection, schedule: Q01DX009 (ip), vehicle: saline) was 0 of 6. The survivor count (T/C endpoint: mean survival time, dose: 450.0 mg/kg/injection, schedule: Q01DX009 (ip), vehicle: saline) was 0 of 6.
O=C(O)c1cccc2c1-c1c(cccc1[N+](=O)[O-])C2 was tested, and the survivor count [4] was 2 of 6.
For O=C(O)c1cc(N2CCCCC2)ccn1, the survivor count [9] was 0 of 6.
For CCCCNCCO, the survivor count (T/C endpoint: mean survival time, dose: 200.0 mg/kg/injection, schedule: Q01DX001 (ip), vehicle: saline) was 2 of 4 and the survivor count [9] was 0 of 4.
CC(CN=[N+]=[N-])OC(=O)C(F)(F)F (configuration not stated) was tested, and the survivor count (T/C endpoint: mean survival time, dose: 150.0 mg/kg/injection, schedule: Q01DX009 (ip), vehicle: saline) was 0 of 6 and the survivor count [8] was 2 of 6.
CC(CN=Cc1ccccc1[NH-])N=Cc1ccccc1[NH-].[Ni+2] (configuration not stated) was tested, and the survivor count [10] was 1 of 3, the survivor count [11] was 0 of 3 and the survivor count [12] was 0 of 3.
Cc1ccc(C(=O)N/N=C/C(=O)O)cc1 was tested, and the survivor count [13] was 3 of 6.
With CCC(CC)n1c(C)cc(=O)n1C(CC)CC the survivor count (T/C endpoint: mean survival time, dose: 40.0 mg/kg/injection, schedule: Q01DX001 (ip), vehicle: saline) was 2 of 6 and the survivor count (T/C endpoint: mean survival time, dose: 80.0 mg/kg/injection, schedule: Q01DX001 (ip), vehicle: saline) was 0 of 6.
For CCN1CCC(C(C)(C)C)CC1, the survivor count (T/C endpoint: mean survival time, dose: 200.0 mg/kg/injection, schedule: Q01DX001 (ip), vehicle: acetone) was 0 of 6 and the survivor count (T/C endpoint: mean survival time, dose: 400.0 mg/kg/injection, schedule: Q01DX001 (ip), vehicle: acetone) was 0 of 6.
With O/N=C/c1cccc[n+]1Cc1ccccc1 the survivor count (T/C endpoint: mean survival time, dose: 50.0 mg/kg/injection, schedule: Q01DX009 (ip), vehicle: water) was 0 of 6, the survivor count (T/C endpoint: mean survival time, dose: 100.0 mg/kg/injection, schedule: Q01DX009 (ip), vehicle: water) was 0 of 6 and the survivor count (T/C endpoint: mean survival time, dose: 200.0 mg/kg/injection, schedule: Q01DX009 (ip), vehicle: water) was 0 of 6. For the same molecule, the survivor count [13] was 0 of 6.
With COc1ccc(C(C)=O)cc1[N+](=O)[O-] the survivor count [6] was 3 of 6.
OCCOc1ccc(Cl)cc1 was tested, and the survivor count [6] was 0 of 6.
With CCOP(=S)(N=C=S)OCC the survivor count [10] was 0 of 3, the survivor count [11] was 0 of 3 and the survivor count [12] was 0 of 3.
For CCCCCCCCCCCCCCCCCCNC(=S)NCCCCCCCCCCCCCCCCCC, the survivor count (T/C endpoint: mean survival time, dose: 25.0 mg/kg/injection, schedule: Q01DX009 (ip), vehicle: saline with Tween-80) was 6 of 6.
For Nc1ccc(-c2c(N)ncc3ccccc23)cc1, the survivor count (T/C endpoint: mean survival time, dose: 100.0 mg/kg/injection, schedule: Q04DX003 (ip), vehicle: DMSO) was 6 of 6, the survivor count (T/C endpoint: mean survival time, dose: 200.0 mg/kg/injection, schedule: Q04DX003 (ip), vehicle: DMSO) was 0 of 6 and the survivor count (T/C endpoint: mean survival time, dose: 400.0 mg/kg/injection, schedule: Q04DX003 (ip), vehicle: DMSO) was 0 of 6.
With COc1ccc(C[C@H](N)C(=O)NC2C(CO)OC(n3cnc4c(N(C)C)ncnc43)C2O)cc1 (some centres not stated) the survivor count (T/C endpoint: median survival time, dose: 200.0 mg/kg/injection, schedule: Q01DX005 (ip), vehicle: water) was 6 of 6.
Cc1cc2c(C(C)C)c(O)c(O)cc2c(O)c1-c1c(C)cc2c(C(C)C)c(O)c(O)cc2c1O was tested, and the survivor count (T/C endpoint: mean survival time, dose: 100.0 mg/kg/injection, schedule: Q01DX001 (ip), vehicle: saline with Tween-80) was 6 of 6, the survivor count (T/C endpoint: mean survival time, dose: 200.0 mg/kg/injection, schedule: Q01DX001 (ip), vehicle: saline with Tween-80) was 6 of 6 and the survivor count (T/C endpoint: mean survival time, dose: 400.0 mg/kg/injection, schedule: Q01DX001 (ip), vehicle: saline with Tween-80) was 6 of 6.
With CCc1c(O)c2c(c(O)c1C(C)=O)C(=O)c1c(cc(O)c(C(=O)O)c1C(=O)O)C2=O the survivor count [7] was 0 of 6.
For CCN(CC)CCOCCO, the survivor count [1] was 3 of 6.

— PubChem BioAssay AID256 (DTP/NCI, 2004)
